The list does not hold the whole screen: it covers a few groups of compounds. Other doses and runs of a compound may be missing. T/C: endpoint of the treated group in % of that of the vehicle group. Some doses have a count of surviving animals in place of a T/C: the source files T/C as zero there, which appears to mark a toxic dose or a test without result, not a measured value. Some doses without a T/C left all or most animals alive at the check, yet need not have been tolerated: the source hardly ever lists a survival T/C far under the control, and the zero likely stands for such cases as well. Counts of survivors are from the toxicity check (mostly the fifth day) where no day follows; animals may have died later. Schedules are NCI's codes, read here as Q, the interval in days (D) or hours (H), X, the number of doses. Some entries were tested several times; their values stand side by side, smallest first. For survival time, the PubChem record calls one and a half times the control and up active, and a quarter to a half above the control has no call in these data; cut-offs in other NCI protocols can differ. Counts like (3×) give the number of equal values in this list. Some T/C values are followed by the survivors on the day toxicity was checked, most often the fifth; where neither a count nor a note follows, no animal had died by that day.
Tested on: CD2F1 mice, Lymphoma 8 ip, survival T/C
Assay: NCI In Vivo Anticancer Drug Screen. Data for tumor model Lymphoma 8 (intraperitoneal) in CD2F1 (CDF1) mice
Details: vehicle: saline, higher T/C = longer survival
Procedure: The antitumor activity of compounds was measured in mice bearing transplantable tumors. Survival or tumor size were measured and the results are expressed as the measurement made in the treated group (T) divided by the measurement made in the vehicle treated control group (C). The tumor model used in this assay is Lymphoma 8 (intraperitoneal) in CD2F1 (CDF1) mice

| Structure (SMILES) | T/C (T/C endpoint: survival time, mean or median, dose: 8.0 mg/kg/injection, schedule: Q01DX010 (ip)) | T/C (T/C endpoint: survival time, mean or median, dose: 16.0 mg/kg/injection, schedule: Q01DX010 (ip)) | T/C (T/C endpoint: survival time, mean or median, dose: 32.0 mg/kg/injection, schedule: Q01DX010 (ip)) | survivor count (T/C endpoint: survival time, mean or median, dose: 64.0 mg/kg/injection, schedule: Q01DX010 (ip)) | T/C (T/C endpoint: median survival time, dose: 12.5 mg/kg/injection, schedule: Q01DX009 (ip)) | T/C (T/C endpoint: median survival time, dose: 25.0 mg/kg/injection, schedule: Q01DX009 (ip)) | T/C (T/C endpoint: median survival time, dose: 50.0 mg/kg/injection, schedule: Q01DX009 (ip)) | survivor count (T/C endpoint: median survival time, dose: 75.0 mg/kg/injection, schedule: Q01DX009 (ip)) |
| --- | --- | --- | --- | --- | --- | --- | --- | --- |
| CN(N=O)C(=N)N[N+](=O)[O-] | 105 and 125 % of control | 110 and 140 % of control | 90 % of control (2×) | 5 of 6 and 6 of 6 |  |  |  |  |
| Nc1cc([As]=O)ccc1O (stereo not drawn) |  |  |  |  | 110 % of control | 116 % of control | 111 % of control [9 of 10 alive] | 0 of 10 |

Reference: PubChem BioAssay AID244 (DTP/NCI, 2004)
